Measurements reported in PubChem BioAssay AID1508597 (Cure First, 2020).

Assay: 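Genes whose silencing sensitises or protects ovarian cancer cells against rucaparib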 (primary screen)
Cells: human ovarian carcinoma lines grown from tumours: OCI-P5x (papillary serous) and OCI-C5x (clear cell)
Reagents: siRNA pool against human genes, 1.25 pmol siRNA per well
Duration: 72 h or 96 h, depending on the cell culture
Treatment: rucaparib 20 µM (about IC30) or vehicle, present until read-out
Rucaparib or vehicle: Vehicle
Cell line: OCI-C5x (clear cell)
Read-out: 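ATP luminescence measured at 72 or 96 h according to the culture, then normalised and expressed as percent viability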
Direction: viability, normalised: higher = more viable cells remaining
Rule for the call: 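Active when normalised viability falls below 80 percent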
Meaning of the calls: active = viability under 80%; inactive = viability 80% or more
This is a random part of the about 2,100 reagents, in one setting of the screen. 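Calls flag viability under 80% in either arm, not effects specific to rucaparib; the reference for percent is not stated.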 Some reagents were tested in more than one well and are listed for each. Not stated in the record: the 100% reference.

gene symbol	PubChem SID	technical replicate	viability, normalised (%)	Call
NAALADL1 (N-acetylated alpha-linked acidic dipeptidase like 1)	SID405527490	1	72.7	active
NAALADL1 (N-acetylated alpha-linked acidic dipeptidase like 1)	SID405527490	2	72.3	active
NAALADL1 (N-acetylated alpha-linked acidic dipeptidase like 1)	SID405527490	3	56.3	active
TRIB2 (tribbles pseudokinase 2)	SID405527669	1	74.8	active
TRIB2 (tribbles pseudokinase 2)	SID405527669	2	66.3	active
TRIB2 (tribbles pseudokinase 2)	SID405527669	3	51.5	active
UBE2I (ubiquitin conjugating enzyme E2 I)	SID405526410	1	48.2	active
UBE2I (ubiquitin conjugating enzyme E2 I)	SID405526410	1	42.1	active
UBE2I (ubiquitin conjugating enzyme E2 I)	SID405526410	2	45.2	active
UBE2I (ubiquitin conjugating enzyme E2 I)	SID405526410	2	42.2	active
UBE2I (ubiquitin conjugating enzyme E2 I)	SID405526410	3	45.8	active
UBE2I (ubiquitin conjugating enzyme E2 I)	SID405526410	3	50.9	active
EXO1 (exonuclease 1)	SID405528251	1	58.4	active
EXO1 (exonuclease 1)	SID405528251	2	58.2	active
EXO1 (exonuclease 1)	SID405528251	3	47.6	active
FOXC2 (forkhead box C2)	SID405526796	1	50.7	active
FOXC2 (forkhead box C2)	SID405526796	2	40.7	active
FOXC2 (forkhead box C2)	SID405526796	3	45.6	active
KDR (kinase insert domain receptor)	SID405527833	1	41.4	active
KDR (kinase insert domain receptor)	SID405527833	2	41.1	active
KDR (kinase insert domain receptor)	SID405527833	3	32.4	active
MPHOSPH8 (M-phase phosphoprotein 8)	SID405527028	1	57.3	active
MPHOSPH8 (M-phase phosphoprotein 8)	SID405527028	2	60.1	active
MPHOSPH8 (M-phase phosphoprotein 8)	SID405527028	3	54.8	active
DGKA (diacylglycerol kinase alpha)	SID405527404	1	69.8	active
DGKA (diacylglycerol kinase alpha)	SID405527404	2	38.6	active
DGKA (diacylglycerol kinase alpha)	SID405527404	3	51.3	active
PCDHB11 (protocadherin beta 11)	SID405527120	1	37.1	active
PCDHB11 (protocadherin beta 11)	SID405527120	2	41.8	active
PCDHB11 (protocadherin beta 11)	SID405527120	3	43.8	active
MED20 (mediator complex subunit 20)	SID405526995	1	44.2	active
MED20 (mediator complex subunit 20)	SID405526995	2	48.7	active
MED20 (mediator complex subunit 20)	SID405526995	3	34.4	active
FXR2 (FMR1 autosomal homolog 2)	SID405526804	1	61.3	active
FXR2 (FMR1 autosomal homolog 2)	SID405526804	2	63.1	active
FXR2 (FMR1 autosomal homolog 2)	SID405526804	3	54	active
MAPK7 (mitogen-activated protein kinase 7)	SID405527388	1	76.4	active
MAPK7 (mitogen-activated protein kinase 7)	SID405527388	2	64	active
MAPK7 (mitogen-activated protein kinase 7)	SID405527388	3	78.1	active
NUAK1 (NUAK family kinase 1)	SID405528528	1	63.5	active
NUAK1 (NUAK family kinase 1)	SID405528528	2	60.9	active
NUAK1 (NUAK family kinase 1)	SID405528528	3	55	active
TF (transferrin)	SID405528464	1	67.1	active
TF (transferrin)	SID405528464	2	66.5	active
TF (transferrin)	SID405528464	3	57.4	active
SALL1 (spalt like transcription factor 1)	SID405527270	1	53.5	active
SALL1 (spalt like transcription factor 1)	SID405527270	2	45.9	active
SALL1 (spalt like transcription factor 1)	SID405527270	3	68.8	active
PDE1B (phosphodiesterase 1B)	SID405526684	1	54.7	active
PDE1B (phosphodiesterase 1B)	SID405526684	2	52.8	active
PDE1B (phosphodiesterase 1B)	SID405526684	3	48.6	active
PTTG2 (pituitary tumor-transforming 2)	SID405527214	1	46.2	active
PTTG2 (pituitary tumor-transforming 2)	SID405527214	2	27.3	active
PTTG2 (pituitary tumor-transforming 2)	SID405527214	3	37.2	active
MACROH2A2 (macroH2A.2 histone)	SID405526834	1	42.2	active
MACROH2A2 (macroH2A.2 histone)	SID405526834	2	31	active
MACROH2A2 (macroH2A.2 histone)	SID405526834	3	36.5	active
EIF2AK3 (eukaryotic translation initiation factor 2 alpha kinase 3)	SID405527639	1	55.5	active
EIF2AK3 (eukaryotic translation initiation factor 2 alpha kinase 3)	SID405527639	2	50.5	active
EIF2AK3 (eukaryotic translation initiation factor 2 alpha kinase 3)	SID405527639	3	60	active
CKMT1B (creatine kinase, mitochondrial 1B)	SID405528568	1	49.3	active
CKMT1B (creatine kinase, mitochondrial 1B)	SID405528568	2	39.3	active
CKMT1B (creatine kinase, mitochondrial 1B)	SID405528568	3	46.8	active
PAXIP1 (PAX interacting protein 1)	SID405526372	1	70.7	active
PAXIP1 (PAX interacting protein 1)	SID405526372	2	60.3	active
PAXIP1 (PAX interacting protein 1)	SID405526372	3	69.3	active
ETNK1 (ethanolamine kinase 1)	SID405527845	1	56.2	active
ETNK1 (ethanolamine kinase 1)	SID405527845	2	76	active
ETNK1 (ethanolamine kinase 1)	SID405527845	3	70	active
SP140 (SP140 nuclear body protein)	SID405526491	1	36.2	active
SP140 (SP140 nuclear body protein)	SID405526491	2	39.4	active
SP140 (SP140 nuclear body protein)	SID405526491	3	37.1	active
IFNAR1 (interferon alpha and beta receptor subunit 1)	SID405526727	1	52.4	active
IFNAR1 (interferon alpha and beta receptor subunit 1)	SID405526727	2	56.1	active
IFNAR1 (interferon alpha and beta receptor subunit 1)	SID405526727	3	42.9	active
